Data source: PubChem BioAssay AID504791 (Drosophila RNAi Screening Center, 2011)
Screen: 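Genes whose knock-down strengthens or weakens small-RNA reporter silencing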 (primary screen). Cell system: Drosophila S2-derived reporter cells. Reagent: long dsRNA against Drosophila genes, about 150-250 ng dsRNA per well (siRNA assay); about 80-120 ng (miRNA assay). Duration: about 5 days (siRNA assay); about 4 days (miRNA assay). Conditions: copper sulfate induction of reporters: 25 µM (siRNA assay); 200 mM stated (miRNA assay), 1-2 days before reading. Detection: 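Per-well ratio of Renilla over firefly light, expressed relative to that plate's average ratio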. Active means: 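First-pass picks had plate-scaled ratios over 1.5 for the siRNA assay, over 1.6 for the miRNA assay, or under 0.6; two distinct dsRNAs had to score alike on retest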.
The screen tested about 23,000 reagents; this is a random part of those with a known target gene and a result. In the full data, 199 (0.86%) were called active. 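Plate-scaled ratios behind the calls are not deposited; printed light signals are raw; many rows marked increased or decreased are still called inactive.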 A plus sign joins genes that one reagent is predicted to hit. No sequences are given here. The record does not give: the direction of the score.

gene | DRSC id | stable siRNA reporter change | miRNA reporter change | stable assay Renilla, run 1 (luminescence) | stable assay firefly, run 1 (luminescence) | outcome
CG13843 | DRSC14693 | – | – | 7879 | 5.04e5 | inactive
Acox57D-d | DRSC04561 | – | – | 10127 | 3.57e5 | inactive
hiro | DRSC08564 | – | reporter ratio lowered past the hit cutoff | 10831 | 3.89e5 | inactive
Rbp | DRSC15724 | – | – | 8379 | 6.91e5 | inactive
Rbp | DRSC15726 | – | – | 6247 | 3.48e5 | inactive
kz | DRSC18786 | – | – | 6175 | 3.68e5 | inactive
CG13074 | DRSC09957 | – | – | 7079 | 2.91e5 | inactive
pit | DRSC17025 | – | – | 6546 | 3.10e5 | inactive
pit | DRSC22798 | – | – | 3867 | 4.35e5 | inactive
pit | DRSC28254 | – | reporter ratio raised past the hit cutoff | – | – | inactive
Tab2 | DRSC07481 | – | – | 6534 | 3.04e5 | inactive
CG6415 | DRSC02954 | – | – | 6886 | 1.07e6 | inactive
jeb | DRSC06305 | – | – | 6476 | 4.06e5 | inactive
jeb | DRSC06307 | reporter ratio lowered past the hit cutoff | – | 6331 | 6.11e5 | inactive
Spx | DRSC18720 | – | reporter ratio lowered past the hit cutoff | 6546 | 4.58e5 | inactive
Spx | DRSC23542 | – | reporter ratio lowered past the hit cutoff | – | – | inactive
prg | DRSC03324 | – | – | 6404 | 4.66e5 | inactive
CG14834 | DRSC10204 | – | – | 6107 | 4.39e5 | inactive
Os-C | DRSC16778 | – | – | 6822 | 4.62e5 | inactive
CG5273 | DRSC18612 | – | – | 5858 | 2.98e5 | inactive
Asx | DRSC05924 | reporter ratio raised past the hit cutoff | – | 6071 | 1.95e5 | inactive
Or98a | DRSC16774 | – | – | 6083 | 3.77e5 | inactive
Fbxl7 | DRSC15553 | – | – | 7606 | 4.50e5 | inactive
SmydA-4 | DRSC19390 | – | – | 4740 | 3.74e5 | inactive
SmydA-4 | DRSC21866 | – | – | 10444 | 8.15e5 | inactive
CG8891 | DRSC03120 | – | – | 6727 | 3.98e5 | inactive
Ets21C | DRSC00751 | – | – | 7274 | 4.92e5 | inactive
CG33489 | DRSC10588 | – | – | 6603 | 3.53e5 | inactive
CG31098 | DRSC14259 | – | – | 7018 | 2.63e5 | inactive
CG31223 | DRSC15115 | – | – | 15462 | 4.13e5 | inactive
RpL27A | DRSC00781 | – | – | 8117 | 3.01e5 | inactive
CG12398 | DRSC19454 | – | – | 5738 | 4.48e5 | inactive
cbt | DRSC00655 | – | – | 35958 | 3.73e5 | inactive
CG5418 | DRSC02857 | – | – | 8886 | 5.17e5 | inactive
CG5515 | DRSC15825 | – | – | 10826 | 4.29e5 | inactive
CG9586 | DRSC03270 | – | – | 8355 | 3.98e5 | inactive
CG43339 + CG43338 | DRSC02466 | – | – | 7226 | 1.38e6 | inactive
boca | DRSC06408 | – | – | 6271 | 3.47e5 | inactive
CG31855 | DRSC02968 | – | – | 9276 | 5.18e5 | inactive
CG8229 + CG33199 | DRSC05134 | – | – | 5016 | 5.28e5 | inactive

Continued; the last 5 above are carried over.
gene | DRSC id | stable siRNA reporter change | miRNA reporter change | stable assay Renilla, run 1 (luminescence) | stable assay firefly, run 1 (luminescence) | outcome
CG9586 | DRSC03270 | – | – | 8355 | 3.98e5 | inactive
CG43339 + CG43338 | DRSC02466 | – | – | 7226 | 1.38e6 | inactive
boca | DRSC06408 | – | – | 6271 | 3.47e5 | inactive
CG31855 | DRSC02968 | – | – | 9276 | 5.18e5 | inactive
CG8229 + CG33199 | DRSC05134 | – | – | 5016 | 5.28e5 | inactive
CCT1 | DRSC16877 | – | – | 9143 | 3.73e5 | inactive
CG12003 | DRSC08214 | – | – | 6220 | 4.36e5 | inactive
SIFaR | DRSC13467 | – | – | 4434 | 4.12e5 | inactive
SIFaR | DRSC14266 | – | – | 6927 | 3.72e5 | inactive
Atg12 | DRSC09803 | – | – | 6586 | 4.13e5 | inactive
Cpr72Ec | DRSC10449 | – | – | 9095 | 3.09e5 | inactive
CG32795 | DRSC18609 | – | – | 5951 | 4.12e5 | inactive
CG32795 | DRSC18610 | – | – | 5962 | 3.50e5 | inactive
Cp16 | DRSC11119 | – | – | 6320 | 3.68e5 | inactive
Fsn | DRSC06875 | – | – | 8138 | 5.48e5 | inactive
Smyd3 | DRSC17744 | – | – | 7360 | 3.96e5 | inactive
CG11368 | DRSC17778 | – | – | 6527 | 3.70e5 | inactive
CG13014 | DRSC19533 | – | – | 5472 | 3.91e5 | inactive
CG1299 | DRSC08300 | – | – | 6570 | 4.28e5 | inactive
Jhbp4 | DRSC14222 | – | – | 6806 | 3.35e5 | inactive
CG17821 | DRSC06696 | – | – | 5884 | 2.83e5 | inactive
Mcm10 | DRSC03162 | – | – | 95528 | 1.31e6 | inactive
E(spl)mbeta-HLH | DRSC16697 | – | – | 8353 | 6.09e5 | inactive
CG5860 | DRSC15896 | – | – | 9216 | 5.21e5 | inactive
BORCS5 | DRSC19427 | – | – | 9074 | 4.40e5 | inactive
CG34462 | DRSC10768 | – | – | 7643 | 4.88e5 | inactive
CG13615 | DRSC14618 | – | – | 9146 | 3.20e5 | inactive
Bet3 | DRSC10388 | – | – | 6798 | 4.18e5 | inactive
CG34221 | DRSC06150 | – | – | 5151 | 3.07e5 | inactive
Jhbp12 | DRSC14621 | – | – | 6576 | 2.93e5 | inactive
CG5335 | DRSC06931 | – | – | 12081 | 3.45e5 | inactive
CG14423 | DRSC17920 | – | – | 6380 | 3.72e5 | inactive
CG9154 | DRSC03150 | – | – | 1.00e5 | 1.31e5 | inactive
CG12637 | DRSC17845 | – | – | 6170 | 5.75e5 | inactive
Nuf2 | DRSC03123 | – | – | 15132 | 2.63e5 | inactive
dachs | DRSC02072 | – | reporter ratio lowered past the hit cutoff | 6.31e5 | 4.74e5 | inactive
dachs | DRSC02191 | – | – | 7188 | 4.53e5 | inactive
NC2beta | DRSC01895 | – | – | 5931 | 1.87e6 | inactive
Cpr100A | DRSC14465 | – | – | 6458 | 3.65e5 | inactive
GluRIA | DRSC11176 | – | – | 6523 | 4.31e5 | inactive
CG14416 | DRSC18639 | – | – | 7019 | 4.08e5 | inactive
CG14691 | DRSC14914 | – | – | 6806 | 4.04e5 | inactive
CG14260 | DRSC14755 | – | – | 5851 | 3.39e5 | inactive
scb | DRSC05542 | – | – | 6751 | 3.08e5 | inactive
scb | DRSC07678 | – | – | 5855 | 3.09e5 | inactive
CG32808 | DRSC17689 | – | – | 7970 | 4.01e5 | inactive
subdued | DRSC15137 | – | – | 7853 | 2.56e5 | inactive
CG13955 | DRSC06443 | – | – | 5450 | 3.39e5 | inactive
